# Reference: PubChem BioAssay AID248 (DTP/NCI, 2004)
# The list does not hold the whole screen: it is rich in T/C values a quarter to a half above the control, in often repeated tests (any T/C) and in doses without a T/C. Further doses and runs are listed elsewhere. T/C gives the treated animals as a percentage of the vehicle group. Some doses have a count of surviving animals in place of a T/C: the source files T/C as zero there, which appears to mark a toxic dose or a test without result, not a measured value. Some survivor counts are full or nearly so, which does not show that the dose was tolerated: the source hardly ever lists a survival T/C far under the control, and the zero likely stands for such cases as well. Survivors were counted at the toxicity check, usually on the fifth day, unless a day is given; later deaths do not show. Schedule codes are those of the source, read here as Q, the interval in days (D) or hours (H), X, the number of doses. Some doses were run more than once; the values are given in rising order. For survival time, this PubChem deposit counts one and a half times the control or more as active, and values a quarter to a half above the control carry no call in these data; other NCI protocols may use other cut-offs.
# Test system: L1210 leukemia ip in BDF1 mice, survival T/C
# Experiment: NCI In Vivo Anticancer Drug Screen. Data for tumor model L1210 Leukemia (intraperitoneal) in B6D2F1 (BDF1) mice
# Settings: T/C endpoint: mean survival time, higher T/C = longer survival
# [1] = dose: 400.0 mg/kg/injection, schedule: Q04DX003 (ip), vehicle: saline
# [2] = dose: 100.0 mg/kg/injection, schedule: Q04DX002 (ip), vehicle: saline with Tween-80
# [3] = dose: 200.0 mg/kg/injection, schedule: Q04DX002 (ip), vehicle: saline with Tween-80
# [4] = dose: 400.0 mg/kg/injection, schedule: Q04DX002 (ip), vehicle: saline with Tween-80
# [5] = dose: 100.0 mg/kg/injection, schedule: Q01DX001 (ip), vehicle: carboxymethylcellulose (CMC)
# [6] = dose: 400.0 mg/kg/injection, schedule: Q01DX001 (ip), vehicle: carboxymethylcellulose (CMC)
# [7] = dose: 200.0 mg/kg/injection, schedule: Q01DX001 (ip), vehicle: carboxymethylcellulose (CMC)
# [8] = dose: 300.0 mg/kg/injection, schedule: Q01DX001 (ip), vehicle: carboxymethylcellulose (CMC)
# [9] = dose: 30.0 mg/kg/injection, schedule: Q01DX001 (ip), vehicle: carboxymethylcellulose (CMC)
structure (smiles),measurement,setting,value
O=C(Nc1cccc2ccccc12)C(F)(F)F,survivor count,"dose: 200.0 mg/kg/injection, schedule: Q01DX001 (ip), vehicle: saline",1 of 4
same,survivor count,"dose: 400.0 mg/kg/injection, schedule: Q01DX001 (ip), vehicle: saline",0 of 4
C=CCOCCC(=O)OCC=C,survivor count,"dose: 200.0 mg/kg/injection, schedule: Q01DX009 (ip), vehicle: Klucel (hydroxypropylcellulose) (HPC)",2 of 6
same,survivor count,[1],1 of 6
COc1ccc(NC(=O)Nc2ccccc2)cc1,survivor count,"dose: 200.0 mg/kg/injection, schedule: Q04DX002 (ip), vehicle: Klucel (hydroxypropylcellulose) (HPC)",3 of 3
CCN(CC)C/C=C/C(C)Nc1ccnc2cc(Cl)ccc12 (stereo not drawn),survivor count,[2],0 of 3
same,survivor count,[3],0 of 3
same,survivor count,[4],0 of 3
NC(N)=Nc1ccc(/C=C2\C=Cc3ccccc32)cc1,survivor count,[5],6 of 6
same,survivor count,[6],0 of 6
CC(C)c1nc2c(=O)[nH]cnc2o1,survivor count,"dose: 50.0 mg/kg/injection, schedule: Q01DX005 (ip), vehicle: saline",1 of 3
same,survivor count,"dose: 400.0 mg/kg/injection, schedule: Q01DX005 (ip), vehicle: saline",1 of 3
CC(=O)OC(OC(C)=O)c1ccc([N+](=O)[O-])c([N+](=O)[O-])c1,survivor count,[5],0 of 6
same,survivor count,[7],0 of 6
same,survivor count,[6],0 of 6
CC1=CCCC(C)C12CCC(C(C)(C)O)C2 (stereo not drawn),survivor count,"dose: 400.0 mg/kg/injection, schedule: Q04DX003 (ip), vehicle: saline sonified",0 of 6
O=c1[nH]c(C(F)(F)F)c(Cc2ccccc2)c(=O)[nH]1,survivor count,"dose: 400.0 mg/kg/injection, schedule: Q01DX001 (ip), vehicle: gum acacia",3 of 6
CC1CCCC(C)N1C1=NCCO1 (stereo not drawn),survivor count,"dose: 100.0 mg/kg/injection, schedule: Q04DX003 (ip), vehicle: saline with Tween-80",0 of 6
same,survivor count,"dose: 200.0 mg/kg/injection, schedule: Q04DX003 (ip), vehicle: saline with Tween-80",0 of 6
same,survivor count,"dose: 400.0 mg/kg/injection, schedule: Q04DX003 (ip), vehicle: saline with Tween-80",0 of 6
Cc1ccc(NC(=O)N(C)N=O)cc1,survivor count,"dose: 59.0 mg/kg/injection, schedule: Q01DX009 (ip), vehicle: carboxymethylcellulose (CMC)",4 of 6
same,survivor count,"dose: 89.0 mg/kg/injection, schedule: Q01DX009 (ip), vehicle: carboxymethylcellulose (CMC)",1 of 6
same,survivor count,"dose: 133.0 mg/kg/injection, schedule: Q01DX009 (ip), vehicle: carboxymethylcellulose (CMC)",3 of 6
same,T/C,[7],134 and 140 % of control
same,survivor count,"dose: 200.0 mg/kg/injection, schedule: Q01DX009 (ip), vehicle: carboxymethylcellulose (CMC)",0 of 6
same,survivor count,[8],1 of 6
same,survivor count,[6],0 of 4
Cc1cc(C)c(N2C(=O)C=CC2=O)c(C)c1,survivor count,"dose: 3.13 mg/kg/injection, schedule: Q01DX009 (ip), vehicle: saline with Tween-80",6 of 6
same,survivor count,[2],0 of 3
same,survivor count,[3],0 of 3
same,survivor count,[4],0 of 3
O=C1CC(c2ccc(OCN(CCCl)CCCl)cc2)CC(=O)C1CN(CCCl)CCCl (stereo not drawn),T/C,"dose: 0.5 mg/kg/injection, schedule: Q04DX003 (ip), vehicle: saline",126 % of control
same,survivor count,"dose: 0.59 mg/kg/injection, schedule: Q01DX009 (ip), vehicle: carboxymethylcellulose (CMC)",6 of 6
same,T/C,"dose: 0.75 mg/kg/injection, schedule: Q01DX009 (ip), vehicle: saline",134 % of control
same,survivor count,"dose: 0.75 mg/kg/injection, schedule: Q04DX003 (ip), vehicle: saline",6 of 6
same,T/C,"dose: 1.0 mg/kg/injection, schedule: Q01DX001 (ip), vehicle: saline",138 % of control
same,T/C,"dose: 1.0 mg/kg/injection, schedule: Q04DX003 (ip), vehicle: saline",129 % of control
same,T/C,"dose: 1.5 mg/kg/injection, schedule: Q01DX009 (ip), vehicle: saline",129 % of control
same,survivor count,"dose: 1.5 mg/kg/injection, schedule: Q04DX003 (ip), vehicle: saline",6 of 6
same,survivor count,"dose: 2.0 mg/kg/injection, schedule: Q01DX001 (ip), vehicle: saline",6 of 6
same,survivor count,"dose: 2.2 mg/kg/injection, schedule: Q01DX009 (ip), vehicle: carboxymethylcellulose (CMC)",5 of 6
same,T/C,"dose: 3.0 mg/kg/injection, schedule: Q04DX003 (ip), vehicle: saline",135 % of control
same,survivor count,"dose: 3.3 mg/kg/injection, schedule: Q01DX009 (ip), vehicle: carboxymethylcellulose (CMC)",4 of 6
same,T/C,"dose: 4.4 mg/kg/injection, schedule: Q01DX009 (ip), vehicle: carboxymethylcellulose (CMC)",138 % of control
same,survivor count,"dose: 4.4 mg/kg/injection, schedule: Q01DX009 (ip), vehicle: saline",6 of 6
same,survivor count,"dose: 5.0 mg/kg/injection, schedule: Q01DX009 (ip), vehicle: carboxymethylcellulose (CMC)",5 of 6
same,survivor count,"dose: 6.6 mg/kg/injection, schedule: Q01DX009 (ip), vehicle: saline",6 of 6
same,survivor count,"dose: 8.0 mg/kg/injection, schedule: Q01DX001 (ip), vehicle: saline",4 of 6 and 6 of 6
same,survivor count,"dose: 10.0 mg/kg/injection, schedule: Q01DX009 (ip), vehicle: carboxymethylcellulose (CMC)",4 of 6
same,survivor count,"dose: 10.0 mg/kg/injection, schedule: Q01DX009 (ip), vehicle: saline",5 of 6
same,T/C,"dose: 13.0 mg/kg/injection, schedule: Q01DX001 (ip), vehicle: carboxymethylcellulose (CMC)",136 % of control
same,T/C,"dose: 15.0 mg/kg/injection, schedule: Q01DX001 (ip), vehicle: carboxymethylcellulose (CMC)",145 % of control
same,survivor count,"dose: 15.0 mg/kg/injection, schedule: Q01DX001 (ip), vehicle: saline",4 of 6
same,survivor count,"dose: 15.0 mg/kg/injection, schedule: Q01DX009 (ip), vehicle: carboxymethylcellulose (CMC)",5 of 6
same,survivor count,"dose: 20.0 mg/kg/injection, schedule: Q01DX001 (ip), vehicle: carboxymethylcellulose (CMC)",3 of 6
same,survivor count,"dose: 20.0 mg/kg/injection, schedule: Q01DX009 (ip), vehicle: carboxymethylcellulose (CMC)",0 of 6
same,T/C,[9],142 % of control
same,survivor count,[9],2 of 6
same,survivor count,"dose: 30.0 mg/kg/injection, schedule: Q01DX001 (ip), vehicle: saline",5 of 6
same,survivor count,"dose: 30.0 mg/kg/injection, schedule: Q04DX003 (ip), vehicle: saline",6 of 6
same,T/C,"dose: 60.0 mg/kg/injection, schedule: Q01DX001 (ip), vehicle: carboxymethylcellulose (CMC)",142 % of control
same,survivor count,"dose: 60.0 mg/kg/injection, schedule: Q01DX001 (ip), vehicle: saline",0 of 6
same,survivor count,"dose: 60.0 mg/kg/injection, schedule: Q04DX003 (ip), vehicle: saline",5 of 6
same,survivor count,"dose: 75.0 mg/kg/injection, schedule: Q01DX001 (ip), vehicle: carboxymethylcellulose (CMC)",4 of 6
same,survivor count,"dose: 150.0 mg/kg/injection, schedule: Q01DX001 (ip), vehicle: carboxymethylcellulose (CMC)",5 of 6
same,survivor count,[8],0 of 6
same,T/C,"dose: 2.0 micrograms/kg/injection, schedule: Q01DX001 (ip), vehicle: saline with Tween-80",126 % of control
same,T/C,"dose: 4.0 micrograms/kg/injection, schedule: Q01DX001 (ip), vehicle: saline with Tween-80",145 % of control
same,survivor count,"dose: 8.0 micrograms/kg/injection, schedule: Q01DX001 (ip), vehicle: saline with Tween-80",5 of 6
CCCC1(CCC)CN(CO)C1=O,survivor count,"dose: 400.0 mg/kg/injection, schedule: Q01DX009 (ip), vehicle: saline",5 of 6
CC1=[N+](C)C(C)(C)CC(C)O1 (stereo not drawn),survivor count,"dose: 100.0 mg/kg/injection, schedule: Q04DX003 (ip), vehicle: saline",5 of 6
same,survivor count,"dose: 200.0 mg/kg/injection, schedule: Q04DX003 (ip), vehicle: saline",1 of 6
same,survivor count,[1],0 of 6
